From US7642244B2 (Hoffmann-La Roche Inc., priority 2005, dated 2010)

Test: general procedure: Fmoc solid-phase peptide synthesis; Fmoc-Linker-BHA resin; HBTU/HOBt, DIEA
Settings: for isolated mass / isolated yield: whole synthesis; for isolated yield: scale of the general procedure 0.25 mmol; for conjugation yield / final HPLC purity: conjugation step; for final HPLC purity: 280 nm

| Substance | isolated mass | isolated yield | conjugation yield | final HPLC purity | conjugation yield (overall) |
| --- | --- | --- | --- | --- | --- |
| IK-Pqa-RHYLNLVTRQ(N-methyl)RF | 85.3 mg | 16% |  |  |  |
| INIe-Pqa-RHYLNWVTRQ(N-methyl)RY | 84 mg | 15% |  |  |  |
| IK-Pqa-RHYLNLVTRQ(N-methyl)RF(4-O-CH3) | 72 mg | 13% |  |  |  |
| (PEG30,000)-beta-SBA-INIe-Pqa-RHYLNWVTRQ(N-methyl)RY |  |  | 93.4% | >90% |  |
| Ac-IK-Pqa-RHYLNWVTRQ(N-methyl)R (2–6 di F)Y | 24 mg | 4% |  |  |  |
| Trimetyl acetyl-IK-Pqa-RHYLNWVTRQ(N-methyl)RY | 6 mg | 1% |  |  |  |
| IK-Pqa-RHYLNLVTRQ(N-methyl)R(2)NaI | 43 mg | 8% |  |  |  |
| IK-Pqa-RHYLNLVTRQ(N-methyl)R (2–6 di Me)Y | 13.5 mg | 3% |  |  |  |
| IK-Pqa-RHYLNLVTRQ(N-methyl)R(3.4-diCl)Phe | 46 mg | 8% |  |  |  |
| IK-Pqa-RHYLNLVTRQ(N-methyl)R (2–6 di F)Y | 49.3 mg | 9% |  |  |  |
| IK-Pqa-RHYLNLVTRQ(N-methyl)R(4-CF3)Phe | 81 mg | 15% |  |  |  |
| IK-Pqa-RHYLNLVTRQR-C-α-Me-Tyr | 35.1 mg | 7% |  |  |  |
| Ac-IK-Pqa-RHYLNWVTRQ(N-methyl)RY | 68 mg | 12% |  |  |  |
| Cyclohexyl-IK-Pqa-RHYLNWVTRQ(N-methyl)RY | 15 mg | 3% |  |  |  |
| Ac-Ile-Lys(PEG30,000 SPA)-Pqa-RHYLNWVTRQ(Ng-methyl)RY |  |  | 83.3% | >95% |  |
| (PEG40,000 BTC)-IK-Pqa-RHYLNWVTRQ(N-methylRY |  |  | 60.4% | >90% |  |
| IK-Pqa-RHYLNLVTRQ(N-methyl)R (3–5 di F)Y | 28 mg | 5% |  |  |  |
| IK-Pqa-RHYLNLVTRQ(N-methyl)R(4-F)Phe | 35 mg | 7% |  |  |  |
| IK-Pqa-RHYLNWVTRQ(N-methyl)RY | 130 mg | 23% |  |  |  |

| Substance | isolated mass | isolated yield | conjugation yield | final HPLC purity | conjugation yield (overall) |
| --- | --- | --- | --- | --- | --- |
| IK-Pqa-RHYLNLVTRQ(N-methyl)RY | 32 mg | 6% |  |  |  |
| Pentyl-IK-Pqa-RHYLNWVTRQ(N-methyl)RY | 67 mg | 12% |  |  |  |
| IK-Pqa-RHYLNLVTRQ(N-methyl)R (3-I)Y | 41 mg | 7% |  |  |  |
| IK-Pqa-RHYLNLVTRQ(N-methyl)R(2,3.4,5,6-Penta-F)Phe | 89 mg | 16% |  |  |  |
| IK-Pqa-RHYLNLVTRQ(N-methyl)R(1)NaI | 45 mg | 8% |  |  |  |
| IK-Pqa-RHYLNLVTRQ(N-methyl)R (m-)Y | 38.5 mg | 7% |  |  |  |
| (PEG30,000 SPA)IK-Pqa-RHYLNWVTRQ(N-methyl)RY |  |  | 69.8% | >97% |  |
| Benzoyl-IK-Pqa-RHYLNWVTRQ(N-methyl)RY | 23 mg | 4% |  |  |  |
| IK-Pqa-RHYLNLVTRQ(N-methyl)R(3-F)Phe | 84 mg | 16% |  |  |  |
| Ac-Ile-Lys(PEG30,000 SSA)-Pqa-RHYLNWVTRQ(N-methyl)RV |  |  | 81.4% | >97% |  |
| IK-Pqa-RHYLNLVTRQRY | 48 mg | 9% |  |  |  |
| IK-Pqa-RHYLNLVTRQ(N-methyl)R(4-CH2OH)Phe | 24 mg | 4% |  |  |  |
| IK-Pqa-RHYLNLVTRQ(N-methyl)R(4-NH2)Phe | 51.4 mg | 10% |  |  |  |
| (PEG30,000)-SSA-INIe-Pqa-RHYLNWVTRQ(N-methyl)RY |  |  | 94.1% | >90% |  |
| Adamtyl-IK-Pqa-RHYLNWVTRQ(N.methyl)RY | 29 mg | 5% |  |  |  |
| IK-Pqa-RHYLNLVTRQ(N-methyl)RCH | 49 mg | 9% |  |  |  |
| IK(PEG30,000 SSA)-Pqa-RHYLNWVTRQ(N-methyl)RY |  |  | 93.8% | >95% | 89.5% |
| IK-Pqa-RHYLNLVTRQ(N-methyl)RW | 57 mg | 10% |  |  |  |
